Experimental data as given in publication PMC11188874, “HDAC6 Inhibition Releases HR23B to Activate Proteasomes, Expand the Tumor Immunopeptidome and Amplify T-cell Antimyeloma Activity” (Cancer Research Communications, 2024).

Tested on: proteasome ChT-like activity in RPMI-8226 cells
Assay: Cell-based high-throughput screen of proteasome ChT-like activity (LLVY-R110)
Set-up: species or system human
Conditions: 3 µmol/L, 21 hours, then LLVY-R110 18 hours

SMILES: Nc1nc2ccc(OC(F)(F)F)cc2s1 [Riluzole]
- Fold-Increase of proteasome ChT-like activity in the HTS: 1.3 fold
